# Source: the supplement of paper PMC3334620
# Over roughly 33,000 sequences, “E-score (-0.5 to 0.5)” has its median near -0.0059; the highest 2% begin near 0.26. The list shows a part of the results.
# Target: T1, Cin5 (UniProt P40917)
# T1 sequence: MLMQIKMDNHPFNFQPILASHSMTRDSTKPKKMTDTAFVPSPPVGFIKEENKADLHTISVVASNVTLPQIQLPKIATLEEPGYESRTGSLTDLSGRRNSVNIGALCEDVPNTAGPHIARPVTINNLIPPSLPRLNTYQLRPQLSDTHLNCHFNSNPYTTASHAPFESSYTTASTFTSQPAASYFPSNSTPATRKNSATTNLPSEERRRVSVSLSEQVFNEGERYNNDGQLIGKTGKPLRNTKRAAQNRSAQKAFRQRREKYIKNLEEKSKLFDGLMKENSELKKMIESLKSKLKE
# Assay: PBM E-score (8-mer binding enrichment) (E-score (-0.5 to 0.5)); higher = stronger / more preferred TF binding
# Conditions: protein concentration: 100 nM; construct: GST-full length
# In short: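 Detection of bound protein used fluorescent anti-GST, with scans normalised by masliner. The proteins were GST-tagged yeast transcription factors applied at about 100-200 nM to universal all-10-mer Agilent arrays made double-stranded by primer extension. Each ungapped eight-base word, pooled with its reverse complement, was scored with an E-score from the Universal PBM Analysis Suite.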
row,Sequence,PBM E-score
1,ACATAGCA,0.0903
2,ACTGCTCG,0.0493
3,CTATTTAA,-0.0553
4,TAGGAATA,-0.00255
5,AGTCAGGA,0.0328
6,AGGGAAGC,-0.171
7,TCGAGAAA,0.0197
8,GCGGGGAA,0.0829
9,AGAAAAAG,-0.0274
10,CTGCCAAG,-0.153
11,GAAGGCCC,-0.33
12,CCTTCCCG,-0.103
13,CGGGCCGA,-0.152
14,TCCTAGCA,-0.176
15,CCGAATGC,-0.0331
16,TTCAAGAA,0.00208
17,GGTTGTAA,0.0455
18,CTATGCAG,-0.0652
19,AAAATTGT,0.139
20,AAGAGGAT,-0.139
21,ACAAGATC,-0.124
22,TACTGGCA,-0.233

row,Sequence,PBM E-score
1,GAGGGCAA,0.0161
2,TACTCGGA,0.115
3,CACCTAGA,-0.101
4,AACCTACA,0.109
5,AGGAACAC,-0.0084
6,AGTCATTC,0.0712
7,ATGCGACG,-0.0966
8,CTTACGAA,0.26
9,AGGTAGTA,0.102
10,CAGCCCGA,-0.135
11,ACGCAGCG,-0.174
12,AACACTGG,-0.0449
13,CGATGGAA,0.0127
14,ACTCTTCC,-0.24
15,ACAGCCAG,-0.0281
16,ATTCATCA,0.221
17,GAGTAGAA,0.0563
18,GAAGACCA,-0.0788
19,ATAAGAGC,0.181
20,CGGAAGGC,-0.178
21,ACGCGGCC,-0.184
22,GCGCACCA,0.0468

row,Sequence,PBM E-score
1,CCTGCTAA,-0.187
2,AGCCGTAA,0.0779
3,TCTAAACA,-0.115
4,GTATGTCA,0.175
5,GAGCAGCC,-0.169
6,AGGCCGTA,-0.0235
7,CGCATGCA,0.144
8,AGCGGTGA,-0.135
9,ACTAAGAG,-0.0246
10,AGTAATAA,0.193
11,GATTTCGA,0.11
12,CAGAACAG,0.167
13,AGAAAGAC,0.0383
14,GAAATGCC,0.0239
15,CTACATCC,0.0132
16,CATAAGTC,0.0502
17,CAGTACAC,0.0208
18,AATAGTGC,0.122
19,GGACGTCC,0.0213
20,CCCCAACC,-0.0681
21,CCCGGGAG,-0.179
22,GTGTCAGA,-0.0558

row,Sequence,PBM E-score
1,GTACTGCA,-0.0881
2,ACTGCTCT,-0.0719
3,GACCAATC,0.101
4,GACGTGCC,-0.25
5,TCCCTGCA,0.0413
6,AGGGGGTC,-0.459
7,ATGGCCTA,-0.0413
8,ATTAACGG,0.0948
9,GTTGAGAA,0.00602
10,ACGAAACC,0.184
11,CAGGTCGA,0.0591
12,ACTTCTCG,0.0826
13,AACTCGTC,0.0765
14,GGATTCGA,-0.205
15,AAGTTGAG,0.0781
16,AAGACTGT,-0.186
17,CCATTTAA,0.0977
18,ATCCTTGG,0.085
19,AGAAAAAA,0.00216
20,CACTCAGC,0.0793
21,GCACCGAA,0.0053
22,AATTCGAG,-0.129

row,Sequence,PBM E-score
1,AGGGGCAA,-0.0834
2,AGTGTTGA,0.167
3,AAGTGATG,0.0728
4,CAGGGTTC,-0.071
5,CATTGGGG,-0.0653
6,AAAGCGAA,0.194
7,ATCCATTC,0.127
8,AGTCTAGG,-0.244
9,GGGACCGA,-0.154
10,GGTATTAC,0.271
11,CGTACTGC,-0.0186
12,AATACCCA,0.163
13,AAACAAGG,-0.0987
14,TATTTAAA,0.242
15,GTAAGACA,0.111
16,AATTGCAC,0.177
17,AGTTCCAA,-0.0924
18,GCAACGGA,0.117
19,GTTTGAGA,0.0852
20,CAGTACCG,-0.106
21,TAAGCAAA,0.192
22,ATAGAAGC,-0.00312

# Already shown: entries from further up.
row,Sequence,PBM E-score
2,ACTGCTCT,-0.0719
3,GACCAATC,0.101
4,GACGTGCC,-0.25
5,TCCCTGCA,0.0413
6,AGGGGGTC,-0.459
7,ATGGCCTA,-0.0413
8,ATTAACGG,0.0948
9,GTTGAGAA,0.00602
10,ACGAAACC,0.184
11,CAGGTCGA,0.0591
12,ACTTCTCG,0.0826
13,AACTCGTC,0.0765
14,GGATTCGA,-0.205
15,AAGTTGAG,0.0781
16,AAGACTGT,-0.186
17,CCATTTAA,0.0977
18,ATCCTTGG,0.085
19,AGAAAAAA,0.00216
20,CACTCAGC,0.0793
21,GCACCGAA,0.0053
22,AATTCGAG,-0.129
1,AGGGGCAA,-0.0834
2,AGTGTTGA,0.167
3,AAGTGATG,0.0728
4,CAGGGTTC,-0.071
5,CATTGGGG,-0.0653
